Results are given in words; binding and its absence hold for the method and conditions named. In cells and extracts the contact can be indirect. Some binding calls cover weakened binding; strength is not graded here.
Target: T1, bicaudal D homolog 1 (human (endogenous in UCB-MSCs)) (UniProt Q96G01)
T1 sequence: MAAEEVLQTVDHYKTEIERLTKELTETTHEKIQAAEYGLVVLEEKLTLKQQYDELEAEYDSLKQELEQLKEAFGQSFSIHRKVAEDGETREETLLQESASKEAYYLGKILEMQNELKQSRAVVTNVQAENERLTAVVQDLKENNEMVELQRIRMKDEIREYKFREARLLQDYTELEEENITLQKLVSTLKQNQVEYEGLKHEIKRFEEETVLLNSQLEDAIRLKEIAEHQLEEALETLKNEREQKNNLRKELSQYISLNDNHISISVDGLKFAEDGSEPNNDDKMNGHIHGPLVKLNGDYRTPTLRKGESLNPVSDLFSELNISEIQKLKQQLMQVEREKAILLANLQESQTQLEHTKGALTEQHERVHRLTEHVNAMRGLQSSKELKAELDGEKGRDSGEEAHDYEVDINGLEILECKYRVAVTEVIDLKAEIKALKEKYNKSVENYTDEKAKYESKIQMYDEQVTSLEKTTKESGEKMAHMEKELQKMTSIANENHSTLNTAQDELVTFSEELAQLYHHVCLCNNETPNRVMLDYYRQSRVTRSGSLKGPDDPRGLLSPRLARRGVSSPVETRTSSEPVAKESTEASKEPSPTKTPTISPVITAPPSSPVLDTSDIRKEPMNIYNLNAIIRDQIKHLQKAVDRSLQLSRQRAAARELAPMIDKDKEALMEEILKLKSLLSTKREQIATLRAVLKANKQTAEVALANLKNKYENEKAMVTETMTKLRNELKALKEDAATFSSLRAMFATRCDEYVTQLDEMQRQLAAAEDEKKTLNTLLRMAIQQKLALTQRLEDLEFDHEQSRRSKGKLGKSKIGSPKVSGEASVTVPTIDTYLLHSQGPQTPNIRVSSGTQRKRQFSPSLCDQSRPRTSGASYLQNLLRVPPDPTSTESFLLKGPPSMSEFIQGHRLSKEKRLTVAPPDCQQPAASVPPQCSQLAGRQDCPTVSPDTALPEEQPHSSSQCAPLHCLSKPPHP
Test: co-IP; UCB-MSC lysate (20 mM Tris-HCl pH 8.0, 137 mM NaCl, 1% Nonidet P-40, 2 mM EDTA) incubated 6 h at 4°C with BICD1 or rabbit IgG antibodies on protein G magnetic beads; blotted for HIF1α and Dynein IC; cells with or without cycloheximide (10 μM) pretreatment and cP1P (1 μM) for 24 h

By UniProt entry, the sequences of proteins in these tests, tags left out.
UniProt Q16665: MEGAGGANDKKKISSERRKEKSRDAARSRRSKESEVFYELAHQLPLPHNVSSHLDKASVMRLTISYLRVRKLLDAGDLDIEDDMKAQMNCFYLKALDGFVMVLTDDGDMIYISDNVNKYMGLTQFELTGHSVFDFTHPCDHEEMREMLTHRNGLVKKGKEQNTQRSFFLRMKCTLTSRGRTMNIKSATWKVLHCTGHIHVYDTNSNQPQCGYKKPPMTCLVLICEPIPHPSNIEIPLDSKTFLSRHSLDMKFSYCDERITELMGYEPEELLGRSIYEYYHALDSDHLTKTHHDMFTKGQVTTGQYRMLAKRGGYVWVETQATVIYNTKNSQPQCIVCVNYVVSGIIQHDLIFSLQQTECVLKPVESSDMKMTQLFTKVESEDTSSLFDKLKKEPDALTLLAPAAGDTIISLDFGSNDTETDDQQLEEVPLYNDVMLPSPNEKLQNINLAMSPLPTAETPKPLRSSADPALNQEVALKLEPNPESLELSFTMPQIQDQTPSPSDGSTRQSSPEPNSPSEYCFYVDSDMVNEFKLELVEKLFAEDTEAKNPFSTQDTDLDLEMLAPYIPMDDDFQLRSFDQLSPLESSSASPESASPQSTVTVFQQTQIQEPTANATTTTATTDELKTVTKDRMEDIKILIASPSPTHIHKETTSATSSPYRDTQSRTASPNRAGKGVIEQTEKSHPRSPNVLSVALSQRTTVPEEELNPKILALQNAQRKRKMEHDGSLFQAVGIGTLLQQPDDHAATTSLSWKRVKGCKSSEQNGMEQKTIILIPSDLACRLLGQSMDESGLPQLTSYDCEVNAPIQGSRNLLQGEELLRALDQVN

- binding: binds
Substance: hypoxia-inducible factor 1 alpha (from UniProt Q16665 1-826)

Source: article PMC6683124
